Counter-ions that a name gives are not always drawn. Some of the results follow. This data set is noisy: repeats of one test often differ as much as different tests do. Starred links: 1 amine or outer side, 2 acyl side, 3 side chain; linkers in the order of their positions; H or OH if unused. Positions of bridges follow the written chain, without caps; N, C: chain ends. Non-standard residues stand in square brackets, D forms with d. Residues, ends and D or L forms follow the SMILES beside them. *: point of attachment. X1 = NC1=N[C@@H]([C@H](N[*:1])C(=O)[*:2])C[C@H](O)N1; ΔAla(Z-3-ureido) = NC(=O)N/C=C(\N)C(=O)O; β3hOrn = NCCC[C@H](N)CC(=O)*; Dap = NC[C@H](N)C(=O)O A value given as a limit tells only on which side of the number the result lay.

The test system of this experiment is Brugia pahangi adult female. The experiment in a line: motility inhibition on day 3 relative to DMSO vehicle; higher = more active. Particulars: 10 µM; 3 days.
As to `CN(C)CCCN1c2ccccc2CCc2ccccc21` [Imipramine hydrochloride], the “motility inhibition on day 3” value was below 0%.
Regarding `NC(CO)C(=O)NNCc1ccc(O)c(O)c1O` (stereo not drawn) [Benserazide hydrochloride], the “motility inhibition on day 3” value was 0.0134%.
Regarding `NCCC[C@H](N)CC(=O)N[C@H]1CNC(=O)[C@H]([C@H]2C[C@H](O)NC(N)=N2)NC(=O)/C(=C/NC(N)=O)NC(=O)[C@H](CO)NC(=O)[C@H](CO)NC1=O` [viomycin sulfate] (β3hOrn-[Dap]SS[ΔAla(Z-3-ureido)][X1]; lactam 1-C), the “motility inhibition on day 3” value is below 0%.
`CN(C/C=C/C#CC(C)(C)C)Cc1cccc2ccccc12` [terbinafine hydrochloride]: the “motility inhibition on day 3” value amounted to 21.9%.
For the compound `Fc1ccc([C@@H]2CCNC[C@H]2COc2ccc3c(c2)OCO3)cc1` [paroxetine hydrochloride], the “motility inhibition on day 3” value was found to be 14.5%.
The value for `Nc1nc(O)c2ncn(CCC(CO)CO)c2n1` [penciclovir] was 4.51%.
In the case of `Clc1ccc(Nc2nnc(Cc3ccncc3)c3ccccc23)cc1` [vatalanib dihydrochloride], the “motility inhibition on day 3” value was found to be 28.8%.
Turning to `CN1CCC(OC(c2ccccc2)c2ccccc2)CC1` [diphenylpyraline hydrochloride], the “motility inhibition on day 3” value was below 0%.
For the compound `O=C(Oc1cccc2cccnc12)c1ccccc1` [benzoxiquine], the “motility inhibition on day 3” value came to 56.6%.
To `CCOC(=O)[C@H](CCc1ccccc1)N[C@@H](C)C(=O)N1Cc2cc(OC)c(OC)cc2C[C@H]1C(=O)O` [moexipril hydrochloride] belongs 7.86%; to `C[N+](C)(C)CCO.[Cl-]` [choline chloride], 3.38%.
For the compound `O=C(O)CSCC(=O)NC1CCSC1=O` (stereo not drawn) [erdosteine], the “motility inhibition on day 3” value is 5.07%.
For the compound `Cc1cc2nc3c(=O)[nH]c(=O)nc-3n(CC(O)C(O)C(O)COP(=O)(O)O)c2cc1C` (stereo not drawn) [riboflavin 5-phosphate sodium], the “motility inhibition on day 3” value is below 0%.
As to `CC(C)CN(C[C@@H](O)[C@H](Cc1ccccc1)NC(=O)O[C@H]1CO[C@H]2OCC[C@H]21)S(=O)(=O)c1ccc(N)cc1` [Darunavir], the “motility inhibition on day 3” value is below 0%.
Turning to `NCC[C@H](O)C(=O)N[C@@H]1C[C@H](N)[C@@H](O[C@H]2O[C@H](CN)[C@@H](O)[C@H](O)[C@H]2O)[C@H](O)[C@H]1O[C@H]1O[C@H](CO)[C@@H](O)[C@H](N)[C@H]1O` [amikacin sulfate], the “motility inhibition on day 3” value worked out at 33.6%.
In the case of `O=C1c2cccc3c2[C@H](CCC3)CN1[C@@H]1CN2CCC1CC2` [Palonosetron Hydrochloride], the “motility inhibition on day 3” value was determined as 0.751%.
Consider `COc1ccccc1OCC(O)COC(N)=O` (stereo not drawn) [methocarbamol], for which the “motility inhibition on day 3” value was 8.19%.
In the case of `Cc1cc(N)c2ccccc2[n+]1CCCCCCCCCC[n+]1c(C)cc(N)c2ccccc21` [dequalinium chloride], the “motility inhibition on day 3” value worked out at 52.3%.
The value for `Nc1ccn([C@@H]2CS[C@H](CO)O2)c(=O)n1` [lamivudine] was 0.973%; that for `Nc1ccn([C@@H]2CS[C@H](CO)O2)c(=O)n1` was 0.151%; that for `COC(=O)Nc1nc2cc([S+]([O-])c3ccccc3)ccc2[nH]1` (stereo not drawn) [oxfendazole] was 19.3%.
With `CCNC(=O)/C=C/c1cccc(Br)c1` [cinromide], the “motility inhibition on day 3” value is below 0%.
On to `C#C[C@]1(O)CC[C@H]2[C@@H]3CCC4=CC(=NO)CC[C@@H]4[C@H]3CC[C@@]21CC` [17-Desacetyl Norgestimate], for which the “motility inhibition on day 3” value is 0.523%.
On to `COc1ccc2cc(C(C)C(=O)O)ccc2c1` (single isomer, unassigned; (+)) [(+)naproxen], for which the “motility inhibition on day 3” value was found to be 6.28%.
For `CO/N=C(\C(=O)N[C@@H]1C(=O)N2C(C(=O)OC(C)OC(C)=O)=C(COC(N)=O)CS[C@H]12)c1ccco1` (stereo partly drawn) [cefuroxime axetil], the “motility inhibition on day 3” value is below 0%.
On to `O=C(c1ccccc1)c1ccc2n1CCC2C(=O)O` (stereo not drawn) [ketorolac tromethamine], for which the “motility inhibition on day 3” value amounted to 0.59%.
Consider `COc1c(N2CCNC(C)C2)c(F)cc2c(=O)c(C(=O)O)cn(C3CC3)c12` (stereo not drawn) [gatifloxacin], for which the “motility inhibition on day 3” value was below 0%.
For `OCc1ccccc1O` [salicyl alcohol], the “motility inhibition on day 3” value came out at 24.3%.
The value for `NC(=O)[C@@H]1CCCN1C(=O)[C@H](Cc1c[nH]cn1)NC(=O)[C@@H]1CCC(=O)N1` [protirelin] was 12.3%.
The value for `CN(C)CC(c1ccc(O)cc1)C1(O)CCCCC1` (stereo not drawn) [desvenlafaxine succinate] was 10.1%; that for `CC(=O)Oc1cccc(C)c1` [meta-cresyl acetate] was below 0%; that for `CCN[C@@H]1C[C@H](N)[C@@H](O[C@H]2OC(CN)=CC[C@H]2N)[C@H](O)[C@H]1O[C@H]1OC[C@](C)(O)[C@H](NC)[C@H]1O` [netilmicin sulfate] was 1.95%.
Consider `CC(C)(O)c1ccccc1CC[C@@H](SCC1(CC(=O)O)CC1)c1cccc(/C=C/c2ccc3ccc(Cl)cc3n2)c1` [montelukast sodium], for which the “motility inhibition on day 3” value turned out to be 8.97%.
Regarding `CN1Cc2c(N)cccc2C(c2ccccc2)C1` (stereo not drawn) [Nomifensine maleate], the “motility inhibition on day 3” value worked out at 28.4%.
Consider `FC(F)(F)COCC(F)(F)F` [flurothyl], for which the “motility inhibition on day 3” value is below 0%.
The value for `Cc1cc(-c2ccc(/N=N/c3ccc4c(S(=O)(=O)O)cc(S(=O)(=O)O)c(N)c4c3O)c(C)c2)ccc1/N=N/c1ccc2c(S(=O)(=O)O)cc(S(=O)(=O)O)c(N)c2c1O` [evans blue] was 7.85%; that for `C=CCSCC1Nc2cc(Cl)c(S(N)(=O)=O)cc2S(=O)(=O)N1` (stereo not drawn) [althiazide] was 13%.
Turning to `CC(=O)N(CC(O)CN(C(C)=O)c1c(I)c(C(=O)NCC(O)CO)c(I)c(C(=O)NCC(O)CO)c1I)c1c(I)c(C(=O)NCC(O)CO)c(I)c(C(=O)NCC(O)CO)c1I` (stereo not drawn) [iodixanol], the “motility inhibition on day 3” value was 13.5%.
On to `NC(=O)NS(=O)(=O)c1ccc(N)cc1` [sulfacarbamide], for which the “motility inhibition on day 3” value amounted to 6.79%.
Turning to `CN(C)CC/C=C1/c2ccccc2COc2ccc(CC(=O)O)cc21`, the “motility inhibition on day 3” value is 19.2%.
As for `COc1cc(/C=C/C(=O)N2CCCCCCC2)cc(OC)c1OC` [cinoctramide], the “motility inhibition on day 3” value came out at 23.7%.
As to `c1ccc(CN(CC2=NCCN2)c2ccccc2)cc1` [antazoline phosphate], the “motility inhibition on day 3” value is 10.8%.
Consider `CC[C@H](C)C[C@H](C)CCCCCCCCC(=O)N[C@H]1C[C@@H](O)[C@@H](NCCN)NC(=O)[C@@H]2[C@@H](O)CCN2C(=O)[C@H]([C@H](O)CCN)NC(=O)[C@H]([C@H](O)[C@@H](O)c2ccc(O)cc2)NC(=O)[C@@H]2C[C@@H](O)CN2C(=O)[C@H]([C@@H](C)O)NC1=O` [Caspofungin diacetate], for which the “motility inhibition on day 3” value was 27.4%.

For the origin of these results see the supplement of paper PMC7830784.
